This passage reports NP40-soluble protein abundance results from the supplement of paper PMC6411743.

The chains behind the UniProt entries cited, without tags or fusion partners. Where a name states a change or a piece, a line headed by the entry shows the natural chain unless it says otherwise.
UniProt Q5U5X0: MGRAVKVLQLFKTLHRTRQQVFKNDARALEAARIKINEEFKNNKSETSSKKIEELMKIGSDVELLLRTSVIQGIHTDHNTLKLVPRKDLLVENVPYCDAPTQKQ
UniProt Q58WW2: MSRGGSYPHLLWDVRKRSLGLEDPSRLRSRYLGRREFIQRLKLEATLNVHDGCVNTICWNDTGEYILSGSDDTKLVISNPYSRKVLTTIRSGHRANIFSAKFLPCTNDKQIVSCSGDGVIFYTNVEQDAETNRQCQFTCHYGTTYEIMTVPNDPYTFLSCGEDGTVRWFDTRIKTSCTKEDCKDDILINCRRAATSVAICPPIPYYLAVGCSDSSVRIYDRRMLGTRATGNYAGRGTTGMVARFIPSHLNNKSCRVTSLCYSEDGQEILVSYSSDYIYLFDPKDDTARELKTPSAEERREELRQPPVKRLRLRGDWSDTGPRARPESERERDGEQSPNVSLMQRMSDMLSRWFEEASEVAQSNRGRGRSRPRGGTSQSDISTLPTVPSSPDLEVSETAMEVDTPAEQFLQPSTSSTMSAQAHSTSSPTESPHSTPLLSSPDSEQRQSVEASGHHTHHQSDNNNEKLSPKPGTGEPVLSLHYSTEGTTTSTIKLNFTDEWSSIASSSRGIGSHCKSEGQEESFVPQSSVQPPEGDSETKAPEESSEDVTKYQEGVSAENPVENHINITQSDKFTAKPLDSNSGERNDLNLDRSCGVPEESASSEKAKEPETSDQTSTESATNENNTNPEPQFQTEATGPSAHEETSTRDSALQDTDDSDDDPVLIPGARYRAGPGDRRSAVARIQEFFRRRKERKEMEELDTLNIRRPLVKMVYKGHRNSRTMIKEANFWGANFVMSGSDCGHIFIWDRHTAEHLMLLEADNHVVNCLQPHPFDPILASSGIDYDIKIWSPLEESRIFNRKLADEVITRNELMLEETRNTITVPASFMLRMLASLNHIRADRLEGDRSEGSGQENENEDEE
UniProt Q49AR2: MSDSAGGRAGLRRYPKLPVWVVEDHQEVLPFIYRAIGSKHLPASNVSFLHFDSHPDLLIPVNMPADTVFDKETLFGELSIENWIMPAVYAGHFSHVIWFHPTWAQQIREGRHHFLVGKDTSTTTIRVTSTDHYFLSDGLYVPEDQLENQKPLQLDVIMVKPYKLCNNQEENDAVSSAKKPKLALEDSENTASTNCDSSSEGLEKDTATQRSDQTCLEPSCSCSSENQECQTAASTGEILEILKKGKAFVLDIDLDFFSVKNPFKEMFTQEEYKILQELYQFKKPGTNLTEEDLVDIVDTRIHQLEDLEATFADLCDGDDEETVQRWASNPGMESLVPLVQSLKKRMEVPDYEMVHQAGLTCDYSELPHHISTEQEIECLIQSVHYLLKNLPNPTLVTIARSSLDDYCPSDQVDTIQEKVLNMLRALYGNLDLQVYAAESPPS
UniProt Q4LDG9: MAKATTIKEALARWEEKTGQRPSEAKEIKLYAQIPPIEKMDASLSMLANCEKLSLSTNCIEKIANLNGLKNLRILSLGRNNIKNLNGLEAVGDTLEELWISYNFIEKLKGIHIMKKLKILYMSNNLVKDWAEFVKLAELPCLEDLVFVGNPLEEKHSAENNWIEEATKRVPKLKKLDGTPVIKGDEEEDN
UniProt Q16864, whole entry: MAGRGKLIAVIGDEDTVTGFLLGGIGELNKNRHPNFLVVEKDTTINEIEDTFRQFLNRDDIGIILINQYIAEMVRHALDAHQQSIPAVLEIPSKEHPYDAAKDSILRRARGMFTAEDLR
UniProt Q2TAL8: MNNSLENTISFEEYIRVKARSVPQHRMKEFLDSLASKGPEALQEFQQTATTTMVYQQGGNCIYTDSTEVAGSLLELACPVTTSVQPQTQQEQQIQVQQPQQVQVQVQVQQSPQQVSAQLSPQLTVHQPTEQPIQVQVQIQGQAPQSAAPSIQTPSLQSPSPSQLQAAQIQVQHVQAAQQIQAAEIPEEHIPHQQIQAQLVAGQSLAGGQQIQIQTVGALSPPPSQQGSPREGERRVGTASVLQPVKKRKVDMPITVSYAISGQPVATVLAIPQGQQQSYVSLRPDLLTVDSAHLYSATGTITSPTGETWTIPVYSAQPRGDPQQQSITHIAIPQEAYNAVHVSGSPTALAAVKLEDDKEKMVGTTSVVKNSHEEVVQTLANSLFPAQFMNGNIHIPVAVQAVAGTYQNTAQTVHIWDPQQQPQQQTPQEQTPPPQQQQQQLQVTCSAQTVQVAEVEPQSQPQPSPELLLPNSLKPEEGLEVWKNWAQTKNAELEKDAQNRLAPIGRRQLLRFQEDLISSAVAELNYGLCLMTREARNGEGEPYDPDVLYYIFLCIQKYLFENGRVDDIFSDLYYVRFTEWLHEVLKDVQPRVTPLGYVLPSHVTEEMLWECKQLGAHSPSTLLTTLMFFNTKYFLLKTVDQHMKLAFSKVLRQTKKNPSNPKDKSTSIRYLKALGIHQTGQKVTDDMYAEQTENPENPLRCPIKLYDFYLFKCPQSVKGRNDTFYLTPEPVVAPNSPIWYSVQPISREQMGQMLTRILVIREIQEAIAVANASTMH
UniProt Q3B726, whole entry: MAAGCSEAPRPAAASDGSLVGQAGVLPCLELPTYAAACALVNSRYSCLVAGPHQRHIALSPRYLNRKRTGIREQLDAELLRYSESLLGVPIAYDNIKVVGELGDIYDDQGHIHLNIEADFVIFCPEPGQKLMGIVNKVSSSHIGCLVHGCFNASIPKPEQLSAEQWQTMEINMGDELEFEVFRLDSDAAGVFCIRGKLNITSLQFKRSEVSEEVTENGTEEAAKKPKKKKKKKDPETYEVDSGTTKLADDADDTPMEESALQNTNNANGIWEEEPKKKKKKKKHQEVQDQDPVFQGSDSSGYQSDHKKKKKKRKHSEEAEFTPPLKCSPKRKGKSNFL
UniProt Q15906, whole entry: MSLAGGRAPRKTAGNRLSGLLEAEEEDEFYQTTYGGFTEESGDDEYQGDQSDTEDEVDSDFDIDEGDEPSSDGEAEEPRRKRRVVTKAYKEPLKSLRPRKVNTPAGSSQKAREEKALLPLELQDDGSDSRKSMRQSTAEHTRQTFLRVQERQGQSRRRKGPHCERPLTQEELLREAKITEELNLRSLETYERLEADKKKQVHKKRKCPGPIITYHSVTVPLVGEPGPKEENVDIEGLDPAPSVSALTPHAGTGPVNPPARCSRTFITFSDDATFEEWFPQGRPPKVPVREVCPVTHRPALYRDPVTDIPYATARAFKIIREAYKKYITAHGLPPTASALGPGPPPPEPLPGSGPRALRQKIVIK
UniProt Q53S33: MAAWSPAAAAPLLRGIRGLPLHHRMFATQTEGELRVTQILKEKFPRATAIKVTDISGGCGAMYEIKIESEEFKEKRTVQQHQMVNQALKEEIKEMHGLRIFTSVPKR
UniProt Q5T160: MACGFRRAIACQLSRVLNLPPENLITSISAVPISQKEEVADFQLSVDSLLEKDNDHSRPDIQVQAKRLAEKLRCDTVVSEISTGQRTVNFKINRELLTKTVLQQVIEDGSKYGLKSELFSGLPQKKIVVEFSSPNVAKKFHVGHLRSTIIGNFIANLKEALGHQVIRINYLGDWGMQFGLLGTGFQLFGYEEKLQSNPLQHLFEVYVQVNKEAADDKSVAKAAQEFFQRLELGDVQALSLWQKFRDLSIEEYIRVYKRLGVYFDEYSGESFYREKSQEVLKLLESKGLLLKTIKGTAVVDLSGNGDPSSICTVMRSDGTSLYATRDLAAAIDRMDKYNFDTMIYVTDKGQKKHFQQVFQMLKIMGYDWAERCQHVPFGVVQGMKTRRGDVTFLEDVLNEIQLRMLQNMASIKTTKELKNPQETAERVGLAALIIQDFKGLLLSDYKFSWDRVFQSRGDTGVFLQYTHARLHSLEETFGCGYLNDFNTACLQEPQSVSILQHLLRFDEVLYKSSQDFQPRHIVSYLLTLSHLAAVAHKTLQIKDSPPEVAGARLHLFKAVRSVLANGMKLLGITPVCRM
UniProt Q4VC05, whole entry: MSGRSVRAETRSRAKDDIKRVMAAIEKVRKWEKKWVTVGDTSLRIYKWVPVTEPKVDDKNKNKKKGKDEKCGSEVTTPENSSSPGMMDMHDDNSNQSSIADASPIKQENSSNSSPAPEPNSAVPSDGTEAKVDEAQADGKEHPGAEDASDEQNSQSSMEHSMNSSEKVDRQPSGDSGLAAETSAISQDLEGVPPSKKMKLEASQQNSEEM
UniProt Q5EBL8: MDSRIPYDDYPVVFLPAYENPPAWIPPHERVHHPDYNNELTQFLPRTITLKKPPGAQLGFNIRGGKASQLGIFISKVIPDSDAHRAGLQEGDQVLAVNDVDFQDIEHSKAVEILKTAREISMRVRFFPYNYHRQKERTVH
UniProt Q4ADV7: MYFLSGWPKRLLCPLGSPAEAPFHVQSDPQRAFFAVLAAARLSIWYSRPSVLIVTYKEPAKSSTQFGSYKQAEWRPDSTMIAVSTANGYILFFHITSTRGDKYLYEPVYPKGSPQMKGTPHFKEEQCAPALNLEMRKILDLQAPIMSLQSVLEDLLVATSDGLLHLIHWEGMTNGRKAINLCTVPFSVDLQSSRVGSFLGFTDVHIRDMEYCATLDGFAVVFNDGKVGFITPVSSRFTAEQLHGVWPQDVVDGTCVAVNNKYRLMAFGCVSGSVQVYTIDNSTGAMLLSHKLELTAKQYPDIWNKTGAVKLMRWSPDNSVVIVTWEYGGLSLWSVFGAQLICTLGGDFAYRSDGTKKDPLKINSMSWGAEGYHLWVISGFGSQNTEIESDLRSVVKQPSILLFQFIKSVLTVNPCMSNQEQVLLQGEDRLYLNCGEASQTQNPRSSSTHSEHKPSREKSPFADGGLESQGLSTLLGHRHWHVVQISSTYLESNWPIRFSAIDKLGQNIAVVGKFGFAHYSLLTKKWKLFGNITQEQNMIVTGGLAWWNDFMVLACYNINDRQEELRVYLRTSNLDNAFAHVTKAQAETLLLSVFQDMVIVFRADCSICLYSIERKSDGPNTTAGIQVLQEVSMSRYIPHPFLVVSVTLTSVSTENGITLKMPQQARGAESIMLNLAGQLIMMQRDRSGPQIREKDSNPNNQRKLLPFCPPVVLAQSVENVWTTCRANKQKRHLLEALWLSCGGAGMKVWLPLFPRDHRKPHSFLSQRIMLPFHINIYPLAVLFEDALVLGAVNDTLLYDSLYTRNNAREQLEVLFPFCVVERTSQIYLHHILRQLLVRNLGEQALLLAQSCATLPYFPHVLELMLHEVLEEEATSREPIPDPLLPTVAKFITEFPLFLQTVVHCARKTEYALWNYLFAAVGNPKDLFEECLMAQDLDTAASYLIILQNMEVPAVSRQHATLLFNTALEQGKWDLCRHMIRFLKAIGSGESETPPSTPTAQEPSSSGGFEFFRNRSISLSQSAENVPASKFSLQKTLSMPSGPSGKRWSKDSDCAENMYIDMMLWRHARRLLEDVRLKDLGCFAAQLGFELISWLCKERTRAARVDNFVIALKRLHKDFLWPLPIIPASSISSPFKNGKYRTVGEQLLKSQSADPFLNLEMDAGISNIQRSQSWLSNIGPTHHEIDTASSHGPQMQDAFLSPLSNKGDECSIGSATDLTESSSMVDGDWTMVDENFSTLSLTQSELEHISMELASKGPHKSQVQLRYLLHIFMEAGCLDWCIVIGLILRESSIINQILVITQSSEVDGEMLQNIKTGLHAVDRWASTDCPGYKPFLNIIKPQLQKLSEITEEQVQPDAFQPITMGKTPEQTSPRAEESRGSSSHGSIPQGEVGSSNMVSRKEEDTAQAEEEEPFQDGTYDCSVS
UniProt Q5RI15: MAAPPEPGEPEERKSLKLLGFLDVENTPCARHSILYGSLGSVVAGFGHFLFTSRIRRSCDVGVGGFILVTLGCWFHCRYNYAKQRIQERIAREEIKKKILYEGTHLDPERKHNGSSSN
UniProt Q15542, whole entry: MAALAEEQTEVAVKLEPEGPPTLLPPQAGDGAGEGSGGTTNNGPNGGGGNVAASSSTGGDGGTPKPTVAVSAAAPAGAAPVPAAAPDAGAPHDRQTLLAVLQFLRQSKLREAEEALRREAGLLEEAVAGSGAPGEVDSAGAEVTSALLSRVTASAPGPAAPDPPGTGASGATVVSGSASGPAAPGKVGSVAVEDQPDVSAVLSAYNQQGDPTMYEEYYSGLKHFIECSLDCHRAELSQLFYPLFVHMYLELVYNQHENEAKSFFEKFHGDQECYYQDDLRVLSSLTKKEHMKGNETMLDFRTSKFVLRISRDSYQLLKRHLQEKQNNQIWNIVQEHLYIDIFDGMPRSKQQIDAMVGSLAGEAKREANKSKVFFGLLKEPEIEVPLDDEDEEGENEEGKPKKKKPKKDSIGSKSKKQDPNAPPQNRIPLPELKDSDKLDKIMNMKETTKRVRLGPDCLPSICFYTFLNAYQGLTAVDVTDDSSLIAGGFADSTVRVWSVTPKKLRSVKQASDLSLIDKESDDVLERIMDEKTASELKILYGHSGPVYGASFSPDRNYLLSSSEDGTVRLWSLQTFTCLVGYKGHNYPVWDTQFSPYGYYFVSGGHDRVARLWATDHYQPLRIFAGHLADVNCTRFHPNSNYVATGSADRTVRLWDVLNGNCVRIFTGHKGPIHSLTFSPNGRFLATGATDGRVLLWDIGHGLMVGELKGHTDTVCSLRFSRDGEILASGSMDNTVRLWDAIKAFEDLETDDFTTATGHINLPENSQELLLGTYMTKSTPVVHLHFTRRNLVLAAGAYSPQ

Compound in this assay: Nc1ncnc2c1ncn2[C@@H]1O[C@H](COP(=O)(O)OP(=O)(O)NP(=O)(O)O)[C@@H](O)[C@H]1O [adenylyl imidodiphosphate]
Nature of the assay: NP40-soluble protein abundance relative to vehicle (solubility fold change) (ratio); higher = more soluble protein in presence of AMP-PNP. Summed up: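 Data come from three independent experiments in which Dounce-homogenised Jurkat crude lysate was treated at eight concentrations from 0.1 to 10 mM. Treatment ran 10 min at room temperature and then 3 min at 37 °C, after which 0.8% NP40 and benzonase were added for 60 min at 4 °C before ultracentrifugation. The supernatant underwent TMT labelling and LC-MS/MS, and vsn-normalised intensities were expressed as fold change against the detergent-processed vehicle in each replicate.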

± gives the standard deviation of the averaged measurements. The list shows a part of the results, in another mix than the full data. Most values lie at the level of the controls, where differences are scatter.

With UniProt Q5JS37 and related entries, the NP40-soluble protein abundance (concentration: 0.1mM) was 0.983 ± 0.028 and the NP40-soluble protein abundance (concentration: 0.5mM) came to 0.986 ± 0.065.
For the target UniProt Q1MSJ5 and related entries, the NP40-soluble protein abundance is, setting by setting: (concentration: 0.1mM) 1.033 ± 0.01; (concentration: 0.5mM) 1.02 ± 0.0076.
With LGALSL (UniProt Q3ZCW2), the NP40-soluble protein abundance was 1.02 ± 0.031 (concentration: 0.1mM) and 1.01 ± 0.022 (concentration: 0.5mM).
For the target NOM1 (UniProt Q5C9Z4), the NP40-soluble protein abundance (concentration: 0.1mM) turned out to be 0.987 ± 0.048 and the NP40-soluble protein abundance (concentration: 0.5mM) is 0.9896 ± 0.0072.
Take “Q5STZ8 and related entries (UniProt Q8NE71)”: the NP40-soluble protein abundance (concentration: 0.1mM) was found to be 1 ± 0.018 and the NP40-soluble protein abundance (concentration: 0.5mM) stood at 0.994 ± 0.0085.
The corresponding values for LYRM7 (UniProt Q5U5X0) are 0.981 ± 0.013 and 1.03 ± 0.068.
For the target UniProt Q58WW2 and related entries, the NP40-soluble protein abundance amounted to 0.998 ± 0.011 (concentration: 0.1mM) and 0.989 ± 0.015 (concentration: 0.5mM).
The corresponding values for SKIV2L (UniProt Q15477) are 0.82 ± 0.082 and 0.826 ± 0.068.
Taken in the same sequence, the figures for C5orf22 (UniProt Q49AR2) were 0.988 ± 0.031 and 0.98 ± 0.067.
The corresponding values for UniProt Q16537 and related entries are 0.997 ± 0.027 and 0.962 ± 0.043.
Take Q5T5C7 (UniProt P49591): the NP40-soluble protein abundance is, setting by setting: (concentration: 0.1mM) 0.866 ± 0.25; (concentration: 0.5mM) 0.959 ± 0.095.
For CAMK4 (UniProt Q16566), the NP40-soluble protein abundance by setting is: (concentration: 0.1mM) 1.02 ± 0.044; (concentration: 0.5mM) 1.01 ± 0.034.
“Q5T063 and related entries (UniProt Q9NZJ6)”: the NP40-soluble protein abundance came to 0.9827 ± 0.0086 (concentration: 0.1mM) and 1.01 ± 0.014 (concentration: 0.5mM).
Taken in the same sequence, the figures for UniProt Q15424 and related entries were 1.01 ± 0.035 and 1.05 ± 0.023.
For the target TRMT12 (UniProt Q53H54), the NP40-soluble protein abundance worked out at 1 ± 0.062 (concentration: 0.1mM) and 0.997 ± 0.063 (concentration: 0.5mM).
In the case of TMED2 (UniProt Q15363), the NP40-soluble protein abundance worked out at 0.997 ± 0.066 (concentration: 0.1mM) and 0.992 ± 0.13 (concentration: 0.5mM).
For UniProt Q3KQU3-4|Q3KQU3, the NP40-soluble protein abundance runs as follows: (concentration: 0.1mM) 1.09 ± 0.042; (concentration: 0.5mM) 1.06 ± 0.041.
Taken in the same sequence, the figures for UniProt Q15208 were 1.03 ± 0.017 and 1.01 ± 0.045.
TBC1D10B (UniProt Q4KMP7): the NP40-soluble protein abundance is, setting by setting: (concentration: 0.1mM) 1.01 ± 0.074; (concentration: 0.5mM) 0.963 ± 0.076.
With DNAL1 (UniProt Q4LDG9), the NP40-soluble protein abundance reads like this: (concentration: 0.1mM) 0.982 ± 0.04; (concentration: 0.5mM) 1.03 ± 0.072.
The corresponding values for UniProt Q16864 and related entries are 1.01 ± 0.027 and 1.05 ± 0.054.
On to UniProt Q17R31 and related entries, for which the NP40-soluble protein abundance is 1 ± 0.021 (concentration: 0.1mM) and 1 ± 0.012 (concentration: 0.5mM).
For the target UniProt Q3ZCQ8 and related entries, the NP40-soluble protein abundance reads like this: (concentration: 0.1mM) 0.985 ± 0.037; (concentration: 0.5mM) 0.998 ± 0.049.
QRICH1 (UniProt Q2TAL8): the NP40-soluble protein abundance (concentration: 0.1mM) turned out to be 0.964 ± 0.018 and the NP40-soluble protein abundance (concentration: 0.5mM) turned out to be 0.995 ± 0.02.
Taken in the same sequence, the figures for E2F4 (UniProt Q16254) were 0.976 ± 0.027 and 0.974 ± 0.037.
As for “Q5SZG2 and related entries (UniProt Q8TAK5)”, the NP40-soluble protein abundance turned out to be 0.9902 ± 0.0032 (concentration: 0.1mM) and 1 ± 0.016 (concentration: 0.5mM).
Taken in the same sequence, the figures for UniProt Q5TDH0 and related entries were 1.01 ± 0.031 and 0.992 ± 0.026.
The corresponding values for TWISTNB (UniProt Q3B726) are 0.996 ± 0.076 and 0.986 ± 0.01.
The corresponding values for UniProt Q5T3J3 are 1.027 ± 0.0049 and 1.05 ± 0.012.
As for UniProt Q5T5Y3 and related entries, the NP40-soluble protein abundance (concentration: 0.1mM) was 0.994 ± 0.04 and the NP40-soluble protein abundance (concentration: 0.5mM) is 0.9891 ± 0.0023.
For the target UniProt Q15906 and related entries, the NP40-soluble protein abundance runs as follows: (concentration: 0.1mM) 1 ± 0.048; (concentration: 0.5mM) 1.01 ± 0.048.
Turning to MIA3 (UniProt Q5JRA6), the NP40-soluble protein abundance runs as follows: (concentration: 0.1mM) 0.986 ± 0.023; (concentration: 0.5mM) 1.01 ± 0.049.
On to NONO (UniProt Q15233), for which the NP40-soluble protein abundance came to 0.995 ± 0.038 (concentration: 0.1mM) and 1.06 ± 0.035 (concentration: 0.5mM).
Taken in the same sequence, the figures for UniProt Q3T8J9 and related entries were 0.982 ± 0.042 and 0.98 ± 0.019.
The corresponding values for BOLA3 (UniProt Q53S33) are 0.945 ± 0.038 and 0.9745 ± 0.0023.
The corresponding values for RARS2 (UniProt Q5T160) are 0.978 ± 0.036 and 0.984 ± 0.076.
Take UniProt Q4VC05 and related entries: the NP40-soluble protein abundance runs as follows: (concentration: 0.1mM) 1.03 ± 0.03; (concentration: 0.5mM) 1.04 ± 0.049.
With ZC3H13 (UniProt Q5T200), the NP40-soluble protein abundance is, setting by setting: (concentration: 0.1mM) 1 ± 0.019; (concentration: 0.5mM) 1.03 ± 0.021.
As for PTGES3 (UniProt Q15185), the NP40-soluble protein abundance (concentration: 0.1mM) amounted to 1 ± 0.051 and the NP40-soluble protein abundance (concentration: 0.5mM) was determined as 1.05 ± 0.094.
Taken in the same sequence, the figures for UniProt Q2KHR2 and related entries were 0.999 ± 0.032 and 0.996 ± 0.027.
On to AARS2 (UniProt Q5JTZ9), for which the NP40-soluble protein abundance reads like this: (concentration: 0.1mM) 1.04 ± 0.042; (concentration: 0.5mM) 0.98 ± 0.03.
Taken in the same sequence, the figures for TBCEL (UniProt Q5QJ74) were 0.995 ± 0.041 and 1.01 ± 0.018.
Consider UniProt Q53F19, for which the NP40-soluble protein abundance is 0.977 ± 0.025 (concentration: 0.1mM) and 0.978 ± 0.018 (concentration: 0.5mM).
The corresponding values for UniProt Q5JVF3 and related entries are 0.979 ± 0.021 and 0.983 ± 0.027.
The corresponding values for UniProt Q3V6T2 and related entries are 1.01 ± 0.022 and 0.982 ± 0.043.
Taken in the same sequence, the figures for KLHL22 (UniProt Q53GT1) were 1 ± 0.011 and 1.017 ± 0.0027.
For the target UniProt Q16576 and related entries, the NP40-soluble protein abundance is, setting by setting: (concentration: 0.1mM) 0.977 ± 0.045; (concentration: 0.5mM) 0.928 ± 0.094.
Regarding TTF1 (UniProt Q15361), the NP40-soluble protein abundance (concentration: 0.1mM) stood at 0.983 ± 0.012 and the NP40-soluble protein abundance (concentration: 0.5mM) turned out to be 0.971 ± 0.029.
For the target UniProt Q15398-3|Q15398, the NP40-soluble protein abundance is, setting by setting: (concentration: 0.1mM) 0.982 ± 0.017; (concentration: 0.5mM) 0.979 ± 0.034.
The corresponding values for UniProt Q16555 and related entries are 1.01 ± 0.015 and 1.007 ± 0.0085.
The corresponding values for UniProt Q5M775 and related entries are 0.981 ± 0.035 and 1.01 ± 0.07.
For UniProt Q4LE39 and related entries, the NP40-soluble protein abundance stood at 1 ± 0.054 (concentration: 0.1mM) and 0.997 ± 0.051 (concentration: 0.5mM).
In the case of UniProt Q5EBL8 and related entries, the NP40-soluble protein abundance (concentration: 0.1mM) came out at 1.005 ± 0.0023 and the NP40-soluble protein abundance (concentration: 0.5mM) turned out to be 1.01 ± 0.028.
Taken in the same sequence, the figures for RCN1 (UniProt Q15293) were 0.993 ± 0.03 and 1.02 ± 0.014.
The corresponding values for UniProt Q5T6F0 are 0.925 ± 0.071 and 0.919 ± 0.0094.
The corresponding values for UniProt Q4ADV7 and related entries are 0.959 ± 0.038 and 0.9731 ± 0.0081.
On to UniProt Q5T0F9-2, for which the NP40-soluble protein abundance (concentration: 0.1mM) was determined as 1.01 ± 0.049 and the NP40-soluble protein abundance (concentration: 0.5mM) worked out at 1.03 ± 0.035.
Taken in the same sequence, the figures for MAN2A1 (UniProt Q16706) were 0.977 ± 0.017 and 0.953 ± 0.04.
The corresponding values for UniProt Q5RI15 and related entries are 1.02 ± 0.089 and 1.09 ± 0.11.
The corresponding values for UniProt Q4J6C6 and related entries are 0.99 ± 0.029 and 0.972 ± 0.053.
Consider TAF7 (UniProt Q15545), for which the NP40-soluble protein abundance is 1 ± 0.017 (concentration: 0.1mM) and 1.05 ± 0.039 (concentration: 0.5mM).
For UniProt Q15542 and related entries, the NP40-soluble protein abundance reads like this: (concentration: 0.1mM) 1.02 ± 0.039; (concentration: 0.5mM) 1.02 ± 0.02.
Taken in the same sequence, the figures for UniProt Q5H8A4-5 were 0.999 ± 0.011 and 0.98 ± 0.019.
